Laboratory results taken from the supplement of paper PMC3353916.
This is a noisy data set.

Tested on: Sindbis virus TE/5'2J-GFP
Test: percent infected (GFP+ in RFP+ ISG-expressing cells); higher = more infection (less antiviral activity)
Settings: experiment: primary screen (single well)

In the case of “MEGAALLRVSVLCIWMSALFLGVGVRAEEAGARVQQNVPSGTDTGDPQSKPLGDWAAGTMDPESSIFIEDAIKYFKEKVSTQNLLLLLTDNEAWNGFVAAAELPRNEADELRKALDNLARQMIMKDKNWHDKGQQYRNWFLKEFPRLKSELEDNIRRLRALADGVQKVHKGTTIANVVSGSLSISSGILTLVGMGLAPFTEGGSLVLLEPGMELGITAALTGITSSTMDYGKKWWTQAQAHDLVIKSLDKLKEVREFLGENISNFLSLAGNTYQLTRGIGKDIRALRRARANLQSVPHASASRPRVTEPISAESGEQVERVNEPSILEMSRGVKLTDVAPVSFFLVLDVVYLVYESKHLHEGAKSETAEELKKVAQELEEKLNILNNNYKILQADQEL [APOL1]”, the percent infected (BHK/HA-Zeo (control)) is reported as 98.2% and the percent infected (BHK/NZAP-Zeo (ZAP)) is reported as 97.3%.

Work on “MEGAELAGKILSTWLTLVLGFILLPSVFGVSLGISEIYMKILVKTLEWATIRIEKGTPKESILKNSASVGIIQRDESPMEKGLSGLRGRDFELSDVFYFSKKGLEAIVEDEVTQRFSSEELVSWNLLTRTNVNFQYISLRLTMVWVLGVIVRYCVLLPLRVTLAFIGISLLVIGTTLVGQLPDSSLKNWLSELVHLTCCRICVRALSGTIHYHNKQYRPQKGGICVANHTSPIDVLILTTDGCYAMVGQVHGGLMGIIQRAMVKACPHVWFERSEMKDRHLVTKRLKEHIADKKKLPILIFPEGTCINNTSVMMFKKGSFEIGGTIHPVAIKYNPQFGDAFWNSSKYNMVSYLLRMMTSWAIVCDVWYMPPMTREEGEDAVQFANRVKSAIAIQGGLTELPWDGGLKRAKVKDIFKEEQQKNYSKMIVGNGSLS [AGPAT9]” yielded a percent infected (BHK/HA-Zeo (control)) of 98.1% and a percent infected (BHK/NZAP-Zeo (ZAP)) of 96.1%.

For “MEGDFSVCRNCKRHVVSANFTLHEAYCLRFLVLCPECEEPVPKETMEEHCKLEHQQVGCTMCQQSMQKSSLEFHKANECQERPVECKFCKLDMQLSKLELHESYCGSRTELCQGCGQFIMHRMLAQHRDVCRSEQAQLGKGERISAPEREIYCHYCNQMIPENKYFHHMGKCCPDSEFKKHFPVGNPEILPSSLPSQAAENQTSTMEKDVRPKTRSINRFPLHSESSSKKAPRSKNKTLDPLLMSEPKPRTSSPRGDKAAYDILRRCSQCGILLPLPILNQHQEKCRWLASSKGKQVRNFS [XAF1]”, the percent infected (BHK/HA-Zeo (control)) was 97.8% and the percent infected (BHK/NZAP-Zeo (ZAP)) was 91.8%.

Sequence “MEGSRPRSSLSLASSASTISSLSSLSPKKPTRAVNKIHAFGKRGNALRRDPNLPVHIRGWLHKQDSSGLRLWKRRWFVLSGHCLFYYKDSREESVLGSVLLPSYNIRPDGPGAPRGRRFTFTAEHPGMRTYVLAADTLEDLRGWLRALGRASRAEGDDYGQPRSPARPQPGEGPGGPGGPPEVSRGEEGRISESPEVTRLSRGRGRPRLLTPSPTTDLHSGLQMRRARSPDLFTPLSRPPSPLSLPRPRSAPARRPPAPSGDTAPPARPHTPLSRIDVRPPLDWGPQRQTLSRPPTPRRGPPSEAGGGKPPRSPQHWSQEPRTQAHSGSPTYLQLPPRPPGTRASMVLLPGPPLESTFHQSLETDTLLTKLCGQDRLLRRLQEEIDQKQEEKEQLEAALELTRQQLGQATREAGAPGRAWGRQRLLQDRLVSVRATLCHLTQERERVWDTYSGLEQELGTLRETLEYLLHLGSPQDRVSAQQQLWMVEDTLAGLGGPQKPPPHTEPDSPSPVLQGEESSERESLPESLELSSPRSPETDWGRPPGGDKDLASPHLGLGSPRVSRASSPEGRHLPSPQLGTKAPVARPRMSAQEQLERMRRNQECGRPFPRPTSPRLLTLGRTLSPARRQPDVEQRPVVGHSGAQKWLRSSGSWSSPRNTTPYLPTSEGHRERVLSLSQALATEASQWHRMMTGGNLDSQGDPLPGVPLPPSDPTRQETPPPRSPPVANSGSTGFSRRGSGRGGGPTPWGPAWDAGIAPPVLPQDEGAWPLRVTLLQSSF [PLEKHA4]” has a percent infected (BHK/HA-Zeo (control)) of 97.7% and a percent infected (BHK/NZAP-Zeo (ZAP)) of 90.1%.

In the case of “MEKGPVRAPAEKPRGARCSNGFPERDPPRPGPSRPAEKPPRPEAKSAQPADGWKGERPRSEEDNELNLPNLAAAYSSILSSLGENPQRQGLLKTPWRAASAMQFFTKGYQETISDVLNDAIFDEDHDEMVIVKDIDMFSMCEHHLVPFVGKVHIGYLPNKQVLGLSKLARIVEIYSRRLQVQERLTKQIAVAITEALRPAGVGVVVEATHMCMVMRGVQKMNSKTVTSTMLGVFREDPKTREEFLTLIRS [GCH1]”, the percent infected (BHK/HA-Zeo (control)) is reported as 96.7% and the percent infected (BHK/NZAP-Zeo (ZAP)) is reported as 87.4%.

Work on “MEKLLCFLVLTSLSHAFGQTDMSRKAFVFPKESDTSYVSLKAPLTKPLKAFTVCLHFYTELSSTRGYSIFSYATKRQDNEILIFWSKDIGYSFTVGGSEILFEVPEVTVAPVHICTSWESASGIVEFWVDGKPRVRKSLKKGYTVGAEASIILGQEQDSFGGNFEGSQSLVGDIGNVNMWDFVLSPDEINTIYLGGPFSPNVLNWRALKYEVQGEVFTKPQLWP [CRP]” yielded a percent infected (BHK/HA-Zeo (control)) of 89.8% and a percent infected (BHK/NZAP-Zeo (ZAP)) of 81.3%.

“MEKTCIDALPLTMNSSEKQETVCIFGTGDFGRSLGLKMLQCGYSVVFGSRNPQKTTLLPSGAEVLSYSEAAKKSGIIIIAIHREHYDFLTELTEVLNGKILVDISNNLKINQYPESNAEYLAHLVPGAHVVKAFNTISAWALQSGALDASRQVFVCGNDSKAKQRVMDIVRNLGLTPMDQGSLMAAKEIEKYPLQLFPMWRFPFYLSAVLCVFLFFYCVIRDVIYPYVYEKKDNTFRMAISIPNRIFPITALTLLALVYLPGVIAAILQLYRGTKYRRFPDWLDHWMLCRKQLGLVALGFAFLHVLYTLVIPIRYYVRWRLGNLTVTQAILKKENPFSTSSAWLSDSYVALGILGFFLFVLLGITSLPSVSNAVNWREFRFVQSKLGYLTLILCTAHTLVYGGKRFLSPSNLRWYLPAAYVLGLIIPCTVLVIKFVLIMPCVDNTLTRIRQGWERNSKH [STEAP4]” was tested, and the percent infected (BHK/HA-Zeo (control)) was 98.2% and the percent infected (BHK/NZAP-Zeo (ZAP)) was 90.2%.

“MELEGRGAGGVAGGPAAGPGRSPGESALLDGWLQRGVGRGAGGGEAGACRPPVRQDPDSGPDYEALPAGATVTTHMVAGAVAGILEHCVMYPIDCVKTRMQSLQPDPAARYRNVLEALWRIIRTEGLWRPMRGLNVTATGAGPAHALYFACYEKLKKTLSDVIHPGGNSHIANGAAGCVATLLHDAAMNPAEVVKQRMQMYNSPYHRVTDCVRAVWQNEGAGAFYRSYTTQLTMNVPFQAIHFMTYEFLQEHFNPQRRYNPSSHVLSGACAGAVAAAATTPLDVCKTLLNTQESLALNSHITGHITGMASAFRTVYQVGGVTAYFRGVQARVIYQIPSTAIAWSVYEFFKYLITKRQEEWRAGK [SLC25A28]” showed a percent infected (BHK/HA-Zeo (control)) of 92.9% and a percent infected (BHK/NZAP-Zeo (ZAP)) of 93.9%.

With “MELLCCEGTRHAPRAGPDPRLLGDQRVLQSLLRLEERYVPRASYFQCVQREIKPHMRKMLAYWMLEVCEEQRCEEEVFPLAMNYLDRYLSCVPTRKAQLQLLGAVCMLLASKLRETTPLTIEKLCIYTDHAVSPRQLRDWEVLVLGKLKWDLAAVIAHDFLAFILHRLSLPRDRQALVKKHAQTFLALCATDYTFAMYPPSMIATGSIGAAVQGLGACSMSGDELTELLAGITGTEVDCLRACQEQIEAALRESLREASQTSSSPAPKAPRGSSSQGPSQTSTPTDVTAIHL [CCND3]” the percent infected (BHK/HA-Zeo (control)) was 97.8% and the percent infected (BHK/NZAP-Zeo (ZAP)) was 94.9%.

“MELRSYQWEVIMPALEGKNIIIWLPTGAGKTRAAAYVAKRHLETVDGAKVVVLVNRVHLVTQHGEEFRRMLDGRWTVTTLSGDMGPRAGFGHLARCHDLLICTAELLQMALTSPEEEEHVELTVFSLIVVDECHHTHKDTVYNVIMSQYLELKLQRAQPLPQVLGLTASPGTGGASKLDGAINHVLQLCANLDTWCIMSPQNCCPQLQEHSQQPCKQYNLCHRRSQDPFGDLLKKLMDQIHDHLEMPELSRKFGTQMYEQQVVKLSEAAALAGLQEQRVYALHLRRYNDALLIHDTVRAVDALAALQDFYHREHVTKTQILCAERRLLALFDDRKNELAHLATHGPENPKLEMLEKILQRQFSSSNSPRGIIFTRTRQSAHSLLLWLQQQQGLQTVDIRAQLLIGAGNSSQSTHMTQRDQQEVIQKFQDGTLNLLVATSVAEEGLDIPHCNVVVRYGLLTNEISMVQARGRARADQSVYAFVATEGSRELKRELINEALETLMEQAVAAVQKMDQAEYQAKIRDLQQAALTKRAAQAAQRENQRQQFPVEHVQLLCINCMVAVGHGSDLRKVEGTHHVNVNPNFSNYYNVSRDPVVINKVFKDWKPGGVISCRNCGEVWGLQMIYKSVKLPVLKVRSMLLETPQGRIQAKKWSRVPFSVPDFDFLQHCAENLSDLSLD [DHX58]” showed a percent infected (BHK/HA-Zeo (control)) of 96.4% and a percent infected (BHK/NZAP-Zeo (ZAP)) of 86.2%.
